PubChem BioAssay AID504793 – Drosophila RNAi Screening Center | 2011

- Assay: 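Genes required for cells to halt at G2/M after double-strand DNA breaks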 (primary screen)
- System: Drosophila S2R+ cells
- Knock-down reagent: long dsRNA against Drosophila genes, about 0.25 µg dsRNA per well
- Timing: 4 days of dsRNA, then 4 hours of drug before read-out
- Treatment: doxorubicin 0.5 µM for 4 hours to cause double-strand breaks, in cells also given a low, harmless dose of dsRNA against nbs to sensitise the assay
- Measurement: 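Per-well count of mitotic cells stained for phospho-histone H3 after doxorubicin exposure, used as mitotic index; counts are raw and not normalised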
- Reading the numbers: mitotic cells: higher = more cells in mitosis, weaker G2 arrest
- Hit rule: 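Genes are called active only when high mitotic counts were reproduced with independent dsRNAs and mitosis was checked for delay without damage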
- Meaning of the calls: active = confirmed in follow-up tests; inactive = not confirmed
The deposit covers about 23,000 reagents; shown is a random part of those with a known target gene and a result. Of all reagents, 62 (0.27%) got an active call. 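Calls come from follow-up tests whose scores are not deposited, so confirmed genes may have low counts here; counts are not normalised per plate.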 Raw values are not corrected between plates. A number with no mark means an inactive call. The numbers tell different reagents against one gene apart. A plus sign joins genes that one reagent is predicted to hit.

gene knocked down,reagent no.,"mitotic cells, replicate 1"
Coq3 (Coenzyme Q3),1,5
dare (defective in the avoidance of repellents),1,5
CG12321,1,11
CG12321,2,4
CG9813,1,6
CG9813,2,5
CG5326,1,17
CG5326,2,2
CG5326,3,1
CG12259,1,4
CG12259,2,5
CG31388,1,7
Sry-beta (Serendipity beta),1,7
Sry-beta (Serendipity beta),2,7
CG8726,1,3
CG8726,2,5
MED16 (Mediator complex subunit 16),1,4
MED16 (Mediator complex subunit 16),2,6

6 of these entries, set out differently:
{"gene knocked down": "CG12259", "reagent no.": 2, "mitotic cells, replicate 1": 5}
{"gene knocked down": "CG31388", "reagent no.": 1, "mitotic cells, replicate 1": 7}
{"gene knocked down": "Sry-beta (Serendipity beta)", "reagent no.": 1, "mitotic cells, replicate 1": 7}
{"gene knocked down": "Sry-beta (Serendipity beta)", "reagent no.": 2, "mitotic cells, replicate 1": 7}
{"gene knocked down": "CG8726", "reagent no.": 1, "mitotic cells, replicate 1": 3}
{"gene knocked down": "CG8726", "reagent no.": 2, "mitotic cells, replicate 1": 5}

Additional reagents:
gene knocked down,reagent no.,"mitotic cells, replicate 1"
CG12851,1,8
CG11825,1,5
CG11825,2,2
Oseg5 (Outer segment 5),1,6
CG3699,1,8
CG3699,2,15
UQCR-Q (Ubiquinol-cytochrome c reductase ubiquinone-binding protein),1,9
sick (sickie),1,1
sick (sickie),2,7
sick (sickie),3,6
sick (sickie),4,4
Tep2 (Thioester-containing protein 2),1,3
Tep2 (Thioester-containing protein 2),2,1
Ctr9,1,6
Ctr9,2,3
Sprn (Spermitin),1,3
"SmydA-6 (SET and MYND domain containing, arthropod-specific, member 6)",1,6
Mip (Myoinhibiting peptide precursor),1,3
mtDNA-helicase (mitochondrial DNA helicase),1,3
CG33469,1,11
CG7382,1,8
CG7382,2,3
ric8b + ric8a,1,8
ND-24L (NADH dehydrogenase (ubiquinone) 24 kDa subunit-like),1,6
ND-24L (NADH dehydrogenase (ubiquinone) 24 kDa subunit-like),2,4
CG34430,1,1
Mi-2 + Su(Tpl),1,17
